# Results of single-concentration screens

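Whole-parasite assay of Trypanosoma brucei over 72 hours; the read-out is not stated. Compounds at 30 µM. The record gives no direction; compounds that gave an IC50 in retests scored well above the rest, so higher reads as stronger inhibition. Values scatter widely below zero; nearly all retest evidence comes from the higher of the two concentrations used. About 64,000 compounds were tested under these conditions; 1.5% (about 940) showed 50% or more at least once.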

Results are given as percent effect. How 0% and 100% were set is not recorded. Most values in the screen are low, and negative values occur. Compounds were drawn at random from those tested, without regard to their results.

SMILES,Percent Effect
CN1CCCC1CCNC(=O)Nc1ccccc1 (stereo not shown),-11.13
COc1ccc(CCN2CCOC(Cn3nc(C)nc3C)C2)cc1 (stereo not shown),-29.3
N#Cc1ccc(Cl)cc1N1CCC(OC2CCOCC2)CC1,-11.72
CN(Cc1ccsc1)C(=O)CS(=O)(=O)Cc1ccc(Cl)c(Cl)c1,0.241
CCn1cnnc1CNC(=O)Cc1ccc2c(c1)OCCO2,9.925
Cc1noc(CCNC(=O)NCC(=O)NCc2ccccc2)n1,0.009833
O=C1CCN(C(=O)C2(c3ccc(F)cc3)CCOCC2)CCN1,-10.65
O=C1CCC(C(=O)NCCOc2ccccc2-c2ccccc2)CN1 (stereo not shown),-33.26
Cc1cccc(CN2CCOC3(CCCN(CC(=O)N(C)C)C3)C2)n1.O=C(O)C(F)(F)F.O=C(O)C(F)(F)F (stereo not shown),-18.45
Cc1cc(C(=O)NCCC2CCN(C)CC2)ccc1N(C)S(C)(=O)=O,-14.14
COC(=O)NCC(=O)N1CCc2cc(Cl)cc(Cl)c2C1,-3.62
COc1ccc(F)c(NCc2ccc(C(=O)N(C)C)[nH]2)c1,-1.196
Cc1ccc(CNC(=O)Nc2nncs2)n1C,-43.05
CC(C#N)CN(C)Cc1ccc(Cl)c2cccnc12 (stereo not shown),11.41
COc1ccccc1CNC(=O)c1[nH]ncc1Cl,-53.54
Cn1nc2c(cc1=O)CN(Cc1nc(-c3ccco3)no1)CC2,-7.028
CC(C)(C)C(=O)NCC(=O)NC1CC(c2cccc(Cl)c2)C1 (stereo not shown),-35.6
CCC(=O)N1CCC(NC2CCSCC2)C1 (stereo not shown),-16.62
Cc1nnn2c1COCC(CNC(=O)c1ccc3[nH]ccc3c1)C2 (stereo not shown),-7.74
O=C(NC1CCN(c2ncccc2F)C1)c1cccc(-n2ccnn2)c1 (stereo not shown),4.593
Cc1csc(CCCNC(C)CC(=O)Nc2ccc(F)cc2)n1 (stereo not shown),7.668
Cl.Cl.O=C(NCc1cncc2c1CCN(Cc1ccc(F)cc1)C2)C1CC1,-2.41
[H][C@@]12CN(CCOC)C[C@]1([H])[C@H](OC)CCN2C(=O)COc1ccccc1,-13.7
O=C(NCc1ccc2c(c1)OCO2)c1ccc(N2CCCCC2)nn1,-46.1
Cc1cnc(-c2nc(C3CCN(C(=O)Cc4ccsc4)CC3)no2)cn1,-17.65
COCC(c1ccccn1)N(C)C(=O)c1cc(-c2cccn2C)n[nH]1 (stereo not shown),-18.86
O=C(O)C(F)(F)F.O=C(O)C(F)(F)F.O=C(O)C(F)(F)F.[H][C@]12C[C@@H](Cn3cccn3)N(c3nccs3)[C@@]1([H])CCN(CC1CC1)C2,61.8
CC(=O)N1CC2C[C@]2(NC(=O)c2ccco2)C1 (stereo partly shown),-18.54
Cc1noc(C)c1CC(=O)NCCN1CCN(S(C)(=O)=O)CC1,-39.52
O=C(NC1CCCN(c2ccccc2Cl)C1)c1ccc(=O)[nH]n1 (stereo not shown),-10.82
Cc1cccc(CN(Cc2ccccn2)Cc2ncc(C(C)(C)C)o2)c1,99.39
COc1ccc(CCNC(=O)C(C)Nc2cc(C)ccc2C)cc1 (stereo not shown),2.571
O=C(O)C(F)(F)F.O=C(O)C(F)(F)F.[H][C@@]12CCCO[C@]1([H])[C@H](Oc1ccccn1)CN2Cc1nccs1,-13.55
CC(C)n1nc(CN(C)C)c2c1CN(CC1CC1)CC2.O=C(O)C(F)(F)F.O=C(O)C(F)(F)F,-65.73
CNc1nc(C)c(C(=O)N2CCCCC2CCN2CCOCC2)s1 (stereo not shown),-24.78
CN(C)C(=O)c1ccc(-c2cscn2)cc1,-35.25
CS(=O)(=O)NC(=O)c1nnn(-c2ccccc2)c1C1CC1,-14.16
O=C(CS(=O)(=O)c1ccc(Cl)cc1)NC1CCCc2ccccc21 (stereo not shown),-40.01
Cc1nc2cc(NCc3cnn(C)c3)ccc2n1C,-8.359
CC(C)c1ccc(/C=C/CC(=O)NC2CCS(=O)(=O)CC2)cc1,-38.45
COCCN1CCC2(CC1)COc1ccccc1S(=O)(=O)N(C)C2,-36.75
O=C(CC1CC1)N1CCCn2nnc(CNc3ncccn3)c2C1,-48.52
Cc1cc(-c2cnc(N3CCNC(=O)C3)nc2-c2ccoc2C)on1,5.075
CC(NC(N)=O)C(=O)NCc1ccc(Br)c(F)c1 (stereo not shown),-15.08
O=C(Nc1cnc2n1CCCC2)C1CCCN1C1CCNCC1 (stereo not shown),-41
CCCN(CC(F)F)C(=O)CCc1c(C)nc2cc(O)nn2c1C,-19.1
Cc1cc(C(N)=O)c(N2C[C@@H](C)[C@@](C)(O)C2)nc1C,-28.22
CCC(C(=O)NCc1ccncc1)N(c1ccc(OC)cc1)S(C)(=O)=O (stereo not shown),9.285
CCc1noc(CCC(=O)N[C@@H]2CC[C@@H](n3ccnc3C)[C@@H]2O)n1,-7.313
Cn1cc(N2CCCC(SCc3nc(C4CC4)no3)C2=O)cn1 (stereo not shown),-14.72
O[C@H]1COCCN(Cc2cccc(C(F)(F)F)c2)C1,-11.89
O=C(Cc1ccc(F)cc1Cl)N[C@@H]1CCNC[C@H]1O,-9.381
Cc1ccc(CNC(=O)c2nc3c(o2)CN(C(=O)c2cccnc2)C3)o1.O=C(O)C(F)(F)F,-17.16
Cn1cc(N2CC3(COCCN(Cc4ccccn4)C3)OCC2=O)cn1.O=C(O)C(F)(F)F (stereo not shown),-6.501
CCn1nc(C)c2nnn(CC(=O)Nc3ccc(C)c(C)c3)c(=O)c21,14.08
CSc1ccc(CNC(=O)NCC(O)c2cccc(F)c2)cc1 (stereo not shown),17.33
Nc1ncc(-c2ccc(C(F)(F)F)cc2)c(C2CCCNC2)n1 (stereo not shown),90.9
CCC[C@H]1CN(Cc2cc(C#N)n(C)c2C)C[C@@H]1N(C)C,-13.81
[H][C@@]12CN(C(=O)COCC)C[C@]1([H])C(=O)N(CC1CC1)C2,-8.796
[H][C@@]12C[C@H](C(=O)N3CCOCC3)[C@@]([H])(CN(S(=O)(=O)CCC)C1)O2,-5.473
Cc1n[nH]c(C)c1-c1cc(-c2cc[nH]c2)nc(N)c1C#N,10.95
COc1cccc(CN(C)C(C)c2ccon2)c1OCCn1ccnc1 (stereo not shown),-18.58
CCc1ccc(CN2CCN(C)c3ncccc3C2)o1.O=C(O)C(F)(F)F.O=C(O)C(F)(F)F,-39.26
CSc1nccn1-c1cccc(C(=O)NCc2nnc(C)n2C)c1,41.62
Cc1cc(Nc2ccc3c(c2)CC(=O)N3)nc(C(C)C)n1,-65.19
CC(C)n1ccnc1Cn1ccc2ncccc2c1=O,-36.77
NC(=O)c1ccc(N2CCCCC2)c(NC(=O)c2ccc(F)cc2F)c1,-18.95

Repeated from the top, 6 entries:

| SMILES | Percent Effect |
|---|---|
| `CN1CCCC1CCNC(=O)Nc1ccccc1` (stereo not shown) | -11.13 |
| `COc1ccc(CCN2CCOC(Cn3nc(C)nc3C)C2)cc1` (stereo not shown) | -29.3 |
| `N#Cc1ccc(Cl)cc1N1CCC(OC2CCOCC2)CC1` | -11.72 |
| `CN(Cc1ccsc1)C(=O)CS(=O)(=O)Cc1ccc(Cl)c(Cl)c1` | 0.241 |
| `CCn1cnnc1CNC(=O)Cc1ccc2c(c1)OCCO2` | 9.925 |
| `Cc1noc(CCNC(=O)NCC(=O)NCc2ccccc2)n1` | 0.009833 |

Source: ChEMBL document CHEMBL3988442, “University of Dundee, Small-Polar-MMV Screening Library” (2021).